# Test results as given in PubChem BioAssay AID493014 (National Center for Advancing Translational Sciences (NCATS), 2011).
# The campaign covered roughly 340,000 compounds. About 170 (0.05%) were called active. The inconclusive results got no clear call from the source; some entries with a clear call stand among them for comparison. Calls come from the whole dose curve; as a rule, active = well fitted inhibition curve with a large enough effect in the signal ratio, with a control signal flat (not every such curve was filed as active); inconclusive = small, poorly fitted or top-dose-only effect, or effect the other way, or a change in a side signal; inactive = flat fitted curve, though single readings scatter; the % refers to the signal ratio. Potencies of inconclusive entries are doubtful fits and often do not repeat.
# Assay: qHTS Assay to Find Inhibitors of Chronic Active B-Cell Receptor Signaling;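 for activity change, negative = inhibition: plate controls were basal doxycycline-induced cells for no effect and cells given 10 µM MG132 for full effect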
# Details: ABC-DLBCL IkBa-CBG/CBR reporter, luminescence ratio (green luciferase fused to IkBa over red control in TMD8 lymphoma cells), 4 h; activity change, negative = inhibition: at 46.1 µM (top of the series)
# Method in brief: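 Doxycycline induced both beetle luciferases in TMD8 lymphoma cells; IKK-driven degradation limits the IkappaBalpha-fused green signal, while red luminescence normalises for cell number and nonspecific effects. Compounds tested up to 46 uM, 4 hrs.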
# Potency is the fitted concentration of half-maximal effect.
SMILES,"activity change, negative = inhibition",Potency
COc1ccc(-c2n(-c3ccccn3)c3ccccc3[n+]2-c2ccccn2)cc1,inactive: -1.14%,–
CCOC(=O)C1(c2ccccc2)CCN(CC(=O)Nc2cccc3ccccc23)CC1,inconclusive: -5.31%,–
CCCCCCC(=O)N/N=C/c1c(O)n(C2CC2)c(=S)[nH]c1=O,inactive: 0.336%,–
Nc1cc(Cl)c2nonc2c1[N+](=O)[O-],–,"inconclusive: 32.6 µM [rising, single point]"
CN1CCN(S(=O)(=O)c2ccc(Cl)nc2)CC1,inactive: 5.6%,–
CSc1ccccc1C(=O)C1CCCN(Cc2ccccn2)C1 (stereo not given),inactive: -9.74%,–
O=c1[nH]c(=S)[nH]c(O)c1N=Nc1ccc(S(=O)(=O)N2CCc3ccccc32)cc1,inactive: 8.17%,–
Cc1cc(SCC(=O)c2ccccc2)nc(=O)[nH]1,–,"inconclusive: 35.5 µM [rising, single point]"
CCCCCc1nc2c(c(=O)c3ccccc3n2C)c(=O)n1C1CCCCCC1,inactive: -9.68%,–
Cc1ccc(C(=O)NC(O)C(Cl)(Cl)Cl)cc1 (stereo not given),inactive: 6.07%,–
S=C1NCCN1,–,"inconclusive: 6.31 µM [falling, single point]"
NP(=O)(OCCCc1ccccc1)Oc1ccccc1Cl (stereo not given),inconclusive: 12.3%,–
Cc1cc(=O)oc2cc(OCC(=O)N3C[C@H]4C[C@@H](C3)c3cccc(=O)n3C4)ccc12,inconclusive: 14.5%,–
O=C1NC(=O)N(c2ccccc2)C(=O)/C1=C/c1coc2ccc(O)cc2c1=O,inconclusive: -0.557%,–
O=[N+]([O-])c1ccc(-c2ccccc2)c([As](=O)(O)O)c1,–,"inconclusive: 17.8 µM [falling, partial curve, poor fit]"
Cc1ccc(CN2CCN(C)CC2)c(C)c1,inactive: 7.76%,–
COc1ccc(CNCCc2ccc3c(c2)OCO3)c(OC)c1OC,inconclusive: -7.08%,–
CCOc1ccccc1-n1c(O)c(C=NCCCn2ccnc2)c(=O)[nH]c1=O,inactive: 10.5%,–
CCOP(=O)(OCC)/C(=N/OC(=O)c1ccccc1C)C(N)=O,inconclusive: -1.51%,–
CN(CC(=O)Nc1ccccc1C(F)(F)F)C(=O)Cn1c(=O)oc2ccccc21,inconclusive: -1.18%,–
CCOC(=O)N(CC)c1ccc(C(O)(C(=O)OCC)C(F)(F)F)cc1 (stereo not given),inconclusive: -0.0641%,–
C=CCn1c(O)c(/C=N/NC(=O)c2ccncc2)c(=O)[nH]c1=O,inconclusive: -11.6%,–

SMILES,"activity change, negative = inhibition",Potency
O=C(c1ccco1)c1cn(Cc2ccc(Cl)cc2)c2ccccc12,–,"inconclusive: 5.17 µM [rising, partial curve, poor fit]"
COc1cccc(OP(=O)(Nc2ccccc2)Oc2cccc(OC)c2)c1,–,"inconclusive: 5.62 µM [falling, partial curve]"
COc1cccc(C2CCN(CC(=O)Nc3cc(Cl)ccc3OC)CC2O)c1 (stereo not given),inconclusive: -19.3%,–
Cc1ccccc1Cn1cnc2c(oc3ccccc32)c1=O,inconclusive: -4.74%,–
CCOC(=O)c1c(C)[nH]c(O)c1C=Nc1ccc(Cl)cc1,inconclusive: -2.3%,–
CCCCn1c(O)c(C(C)=NCc2cc(OC)cc(OC)c2)c(=O)[nH]c1=O,–,"inconclusive: 3.66 µM [falling, partial curve]"
CCCCOP(=O)(c1ccc(N(C)C)cc1)C(O)c1ccc(OC)c(OC)c1 (stereo not given),inconclusive: 18.2%,–
CN1CCN2c3ccccc3Cc3ccccc3C2C1 (stereo not given),–,"inconclusive: 20 µM [activator, single point]"
CCN1CCN(C(=O)COc2ccc3c(c2)C(=O)CC2(CCN(C(C)=O)CC2)O3)CC1,inconclusive: -0.885%,–
C[C@]1(O)CCC2C3CC[C@H]4C[C@@H](OC(=O)CNC(=O)CN)CC[C@]4(C)C3CC[C@@]21C (stereo not given in full),inactive: -5.32%,–
O=C(N/N=C/c1c(O)n(C2CC2)c(=S)[nH]c1=O)c1ccccc1Cl,–,"inconclusive: 20 µM [falling, partial curve]"
CCCN1C2CCCC1CC(NC(C)=O)C2 (stereo not given),inactive: 17.9%,–
COc1cccc(C(=O)C2CCCN(Cc3ccc4nonc4c3)C2)c1 (stereo not given),inconclusive: 12.1%,–
S=C=Nc1cccc(C2(N3CCCCC3)CCCCC2)c1,–,"inconclusive: 29.1 µM [falling, single point]"
O=C1OCc2cc(N=Nc3c(O)[nH]c(=O)[nH]c3=O)ccc21,–,"inconclusive: 0.282 µM [falling, full curve, poor fit]"
Oc1c(Br)c(Br)c(Br)c(Br)c1Br,inconclusive: 17.4%,–
BrCC(Br)(Br)Br,inconclusive: -15.7%,–
Cc1ccc(N2C(=O)NC(=O)/C(=C\C=C\c3ccco3)C2=O)cc1,–,"inconclusive: 17.8 µM [falling, partial curve, poor fit]"
FC(F)(F)Oc1ccc(C2NCc3ccccc3-n3cccc32)cc1 (stereo not given),inconclusive: 8.1%,–
CCCCn1c(=O)c(C(=O)Nc2ccccc2N)c(O)c2ccccc21,inconclusive: 6.48%,–
Cc1nccc2c1[nH]c1ccc(Br)cc12,inconclusive: 11.4%,–
CCn1c(C)c(C(=O)Nc2ccc(OC)cc2)c2cc(OC)ccc21,inactive: -3.75%,–

SMILES,"activity change, negative = inhibition",Potency
CCCCC(=O)N/N=C/c1c(O)n(-c2cccc3ccccc23)c(=O)[nH]c1=O,inconclusive: 10.6%,–
CCC(=O)Nc1ccc(N2CCN(CC)CC2)c(Cl)c1,inactive: 1.25%,–
CCOc1cc2c(cc1OCC)-n1cccc1C(c1ccccc1F)NC2 (stereo not given),inactive: -19%,–
CN1CCN(C(=O)O[C@H]2c3nccnc3C(=O)N2c2ccc(Cl)cn2)CC1,inactive: -1.3%,–
Cc1cccc(-n2c(-c3cccs3)nc3ccccc3c2=O)c1,inconclusive: -0.228%,–
CC(=O)O[C@H]1[C@H]2O[C@]23[C@@H]2CC[C@]4(O)C[C@@H](O)CC[C@]4(C)C2CC[C@]3(C)[C@H]1c1ccc(=O)oc1 (stereo not given in full),–,"inconclusive: 0.517 µM [rising, full curve, poor fit]"
CCCCC/C(=N/O)c1c(C)[nH]c2ccccc12,inconclusive: 11.5%,–
CC(=Nc1ccccc1N)c1c(O)n(C)c(=O)[nH]c1=O,inconclusive: 15.8%,–
O=C1CN=C(c2ccccc2)c2c(sc3c2CCCC3)N1,inconclusive: -134%,–
CCN1CCN(S(=O)(=O)c2cnc(Cl)c(Br)c2)CC1,inconclusive: 0.948%,–
COc1ccc(C(=O)/C=C/c2ccc(O)cc2)cc1,–,"inconclusive: 25.1 µM [falling, single point]"
CCC(=O)c1ccc(OC(=O)N(C)c2ccccc2)cc1,inconclusive: 12.7%,–
CC(=O)c1cn(Cc2ccccc2C#N)c2ccccc12,inconclusive: 7.06%,–
CN1CCN(c2ccc([N+](=O)[O-])c(Sc3ccccn3)c2)CC1,inconclusive: 2.99%,–
O=c1[nH]c(=O)n(Cc2ccccc2)c(O)c1C=NCCN1CCNCC1,inconclusive: 9.73%,–
CC(=O)OC1C=CC2[C@H]3Cc4ccc(O)c5c4[C@@]2(CCN3C)C1O5 (stereo not given in full),inconclusive: -0.135%,–
COc1ccc(-n2c(/C=C/c3ccc(O)c(O)c3)nc3ccccc3c2=O)cc1,inconclusive: -29.3%,–
O=C(O)c1cccc(N=Nc2c(O)[nH]c(=O)[nH]c2=O)c1,inconclusive: 262%,–
CC(C)COc1ccc(Cc2c(O)[nH]c(=S)[nH]c2=O)cc1,inactive: 0.513%,–
CCC(=Nc1ccc2c(c1)CCC2)c1c(O)n(C2CCCCC2)c(=O)[nH]c1=O,inactive: 4.48%,–
Cn1cc(C(=O)OCC(=O)Nc2ccccc2)c2ccccc21,–,"inconclusive: 4.11 µM [falling, partial curve]"
Clc1ccc(OCc2cnc(Cl)s2)cc1,inconclusive: 5.4%,–

SMILES,"activity change, negative = inhibition",Potency
O=C(NC(=C(Cl)Cl)P(=O)(c1ccccc1)c1ccccc1)c1ccccc1,inactive: 4.79%,–
CCOC(=O)Cn1c(=O)oc2cc(S(=O)(=O)Nc3cc(Cl)ccc3OC)ccc21,inconclusive: -8.83%,–
Cc1nc(CCl)cc(=O)[nH]1,inactive: 0.763%,–
O=P1(Nc2ccc(F)cc2)COc2ccccc2OC1,inconclusive: -9.69%,–
Cc1nn(Cc2ccccc2Cl)c(C)c1C(=O)NC1CCCc2ccccc21 (stereo not given),inconclusive: -3.26%,–
CCC1(OC(=O)CN)C(=O)OCc2c1cc1n(c2=O)Cc2cc3ccccc3nc2-1 (stereo not given),inconclusive: 7.22%,–
COC(=O)C1=C(c2ccc(Cl)c(C(F)(F)F)c2)C[C@@H]2CC[C@H]1N2C(=O)NCc1cc(C)oc1C(F)(F)F,inconclusive: -2.3%,–
COc1ccc(NC(=O)c2c(C)nn(Cc3ccccc3Cl)c2Cl)cc1Cl,inconclusive: 0.583%,–
Cc1cc(N2CCNCC2)nc2ccccc12,inactive: -29%,–
C[N+]1(CC2COC(c3ccco3)O2)CCCCC1 (stereo not given),–,"inconclusive: 7.94 µM [falling, partial curve, poor fit]"
CCCOC(=O)c1ccc(-[n+]2c(-c3ccccc3)cc(-c3ccccc3)cc2-c2ccccc2)cc1,inconclusive: -2.07%,–
Cc1cccc(N2C(=O)/C(=C/c3ccc(N4CCN(C)CC4)o3)C(=O)NC2=S)c1C,inconclusive: 1.82%,–
N/C(=N\OC(=O)c1ccco1)c1ccc(Cl)cc1,inconclusive: 1.2%,–
CCN(CC)c1ccc(C=C2C(=O)NC(=S)NC2=O)cc1,inactive: -9.12%,–
COc1ccc(C(=O)C(CN2CCCC2)c2ccccc2)cc1 (stereo not given),–,"inconclusive: 3.16 µM [falling, partial curve, poor fit]"
COc1ccc(C(=O)Oc2cccc3cccnc23)cc1S(=O)(=O)N1CCOCC1,–,"inconclusive: 17.8 µM [cytotoxic, partial curve]"
CC(NC(C)(C)C)C(=O)c1cccc(Cl)c1 (stereo not given),inactive: -10.7%,–
Cn1cc[n+](C)c1P(=S)(c1ccccc1)c1ccccc1,inactive: 6.1%,–
CC1(C)OC(c2ccccc2)=C/C(=C/C=C2C(=O)NC(=O)NC2=O)O1,–,"inconclusive: 10 µM [falling, partial curve]"

# Sorted by SMILES length (low to high): some entries from above
SMILES,"activity change, negative = inhibition",Potency
S=C1NCCN1,–,"inconclusive: 6.31 µM [falling, single point]"
BrCC(Br)(Br)Br,inconclusive: -15.7%,–
Clc1ccc(OCc2cnc(Cl)s2)cc1,inconclusive: 5.4%,–
Cc1ccc(CN2CCN(C)CC2)c(C)c1,inactive: 7.76%,–
Cc1nccc2c1[nH]c1ccc(Br)cc12,inconclusive: 11.4%,–
CN1CCN2c3ccccc3Cc3ccccc3C2C1 (stereo not given),–,"inconclusive: 20 µM [activator, single point]"
O=P1(Nc2ccc(F)cc2)COc2ccccc2OC1,inconclusive: -9.69%,–
CN1CCN(S(=O)(=O)c2ccc(Cl)nc2)CC1,inactive: 5.6%,–
S=C=Nc1cccc(C2(N3CCCCC3)CCCCC2)c1,–,"inconclusive: 29.1 µM [falling, single point]"
CSc1ccccc1C(=O)C1CCCN(Cc2ccccn2)C1 (stereo not given),inactive: -9.74%,–
CCN1CCN(S(=O)(=O)c2cnc(Cl)c(Br)c2)CC1,inconclusive: 0.948%,–
CC(=Nc1ccccc1N)c1c(O)n(C)c(=O)[nH]c1=O,inconclusive: 15.8%,–
FC(F)(F)Oc1ccc(C2NCc3ccccc3-n3cccc32)cc1 (stereo not given),inconclusive: 8.1%,–
CC(C)COc1ccc(Cc2c(O)[nH]c(=S)[nH]c2=O)cc1,inactive: 0.513%,–
CCn1c(C)c(C(=O)Nc2ccc(OC)cc2)c2cc(OC)ccc21,inactive: -3.75%,–
CN1CCN(c2ccc([N+](=O)[O-])c(Sc3ccccn3)c2)CC1,inconclusive: 2.99%,–
COc1ccc(NC(=O)c2c(C)nn(Cc3ccccc3Cl)c2Cl)cc1Cl,inconclusive: 0.583%,–
Cc1ccc(N2C(=O)NC(=O)/C(=C\C=C\c3ccco3)C2=O)cc1,–,"inconclusive: 17.8 µM [falling, partial curve, poor fit]"
O=C(NC(=C(Cl)Cl)P(=O)(c1ccccc1)c1ccccc1)c1ccccc1,inactive: 4.79%,–
COc1ccc(C(=O)Oc2cccc3cccnc23)cc1S(=O)(=O)N1CCOCC1,–,"inconclusive: 17.8 µM [cytotoxic, partial curve]"
CCN1CCN(C(=O)COc2ccc3c(c2)C(=O)CC2(CCN(C(C)=O)CC2)O3)CC1,inconclusive: -0.885%,–
Cc1cc(=O)oc2cc(OCC(=O)N3C[C@H]4C[C@@H](C3)c3cccc(=O)n3C4)ccc12,inconclusive: 14.5%,–
COC(=O)C1=C(c2ccc(Cl)c(C(F)(F)F)c2)C[C@@H]2CC[C@H]1N2C(=O)NCc1cc(C)oc1C(F)(F)F,inconclusive: -2.3%,–
CC(=O)O[C@H]1[C@H]2O[C@]23[C@@H]2CC[C@]4(O)C[C@@H](O)CC[C@]4(C)C2CC[C@]3(C)[C@H]1c1ccc(=O)oc1 (stereo not given in full),–,"inconclusive: 0.517 µM [rising, full curve, poor fit]"
